PubChem BioAssay AID1259254 – NCATS – 2017

- Test: 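Gene knock-downs that lead to re-replication, shown by excess G2 DNA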 (primary screen)
- Cell system: human HCT116 colorectal cancer cells
- Knock-down reagent: single siRNA against human genes
- Time to read-out: 3 days
- Measured: 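Imaged Hoechst DNA stain sorts each cell into a cycle phase by DNA amount; per plate, G2 fraction set to 0% for non-targeting and 100% for GMNN siRNA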
- Reading the numbers: G2 robust z-score and G2 cells, % of GMNN control: higher = more G2 cells, more excess DNA replication; raw share of cells in G2: higher = larger share of cells with G2 DNA content
- Call rule: 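Active siRNAs have a G2 robust z of 5 or more median absolute deviations over the median, which in these data means about 38% or higher of GMNN control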
Shown is one part, drawn at random, of about 59,000 reagents tested. About 1,550 of all reagents (2.6%) count as active. 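G2 share is only a proxy for re-replication; each gene was hit by three separate siRNAs, and active genes were retested.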 Raw values vary from plate to plate and are shown uncorrected. The numbers tell different reagents against one gene apart. The record does not give: the amount of reagent.

no.	gene knocked down	reagent	G2 robust z-score	G2 cells, % of GMNN control	raw share of cells in G2 (%)	activity call
1	ESPNL	1	1.38	12.7	8.34	inactive
2	ESPNL	2	-0.168	1.79	4.04	inactive
3	ESPNL	3	-0.483	-0.429	4.02	inactive
4	GGTLC2	1	0.472	6.29	8.25	inactive
5	GGTLC2	2	-0.0957	2.29	5.23	inactive
6	GGTLC2	3	-0.648	-1.59	3.67	inactive
7	NEXN	1	-0.337	0.597	3.11	inactive
8	NEXN	2	-0.649	-1.6	3.41	inactive
9	NEXN	3	-0.0513	2.61	3.82	inactive
10	NUDCD1	1	-0.942	-3.66	2.53	inactive
11	NUDCD1	2	3.04	24.4	10.6	inactive
12	NUDCD1	3	-0.046	2.64	3.76	inactive
13	PCP4L1	1	0.0434	3.27	4.75	inactive
14	PCP4L1	2	2.79	22.6	11.5	inactive
15	PCP4L1	3	0.0791	3.52	3.82	inactive
16	CLDN18	1	-0.631	-1.47	3.17	inactive
17	CLDN18	2	0.103	3.7	4.1	inactive
18	CLDN18	3	-0.845	-2.98	4.56	inactive
19	NBPF6	1	-0.00901	2.9	4.59	inactive
20	NBPF6	2	0.792	8.54	6.32	inactive
21	NBPF6	3	1.16	11.2	6.09	inactive
22	SASH3	1	-0.7	-1.96	2.54	inactive
23	SASH3	2	2.01	17.1	9.74	inactive
24	SASH3	3	0.839	8.87	8.01	inactive
25	APOA2	1	0.457	6.18	6.82	inactive
26	APOA2	2	2.94	23.7	13.5	inactive
27	APOA2	3	-0.474	-0.367	3.85	inactive
28	OR8U1	1	0.00308	2.99	4.66	inactive
29	OR8U1	2	6.69	50	20.3	active
30	OR8U1	3	1.65	14.6	7.85	inactive
31	NGDN	1	0.082	3.54	5.75	inactive
32	NGDN	2	2.49	20.5	12.8	inactive
33	NGDN	3	3.78	29.5	13.6	inactive
34	LAIR1	1	1.6	14.2	11.1	inactive
35	LAIR1	2	0.979	9.86	6.45	inactive
36	LAIR1	3	-0.408	0.1	5.4	inactive
37	HS2ST1	1	0.468	6.26	5.34	inactive
38	HS2ST1	2	-0.0703	2.47	5.75	inactive
39	HS2ST1	3	-0.377	0.313	5.32	inactive
40	DUOXA2	1	1.28	12	8.17	inactive
41	DUOXA2	2	-0.0233	2.8	4.63	inactive
42	DUOXA2	3	-0.853	-3.03	3.53	inactive
43	PLSCR4	1	-1.13	-4.99	4.24	inactive
44	PLSCR4	2	0.446	6.1	6.63	inactive
45	PLSCR4	3	-0.992	-4.01	2.66	inactive
46	UXT	1	-0.703	-1.98	4.26	inactive
47	UXT	2	0.347	5.41	6.04	inactive
48	UXT	3	-0.0303	2.75	4.32	inactive
49	SEMA3G	1	-0.591	-1.19	3.84	inactive
50	SEMA3G	2	-1.02	-4.22	4.58	inactive
51	SEMA3G	3	1.06	10.4	8.18	inactive
52	ODAD4	1	11.6	84.6	32.3	active
53	ODAD4	2	2.15	18.1	8.82	inactive
54	ODAD4	3	0.329	5.28	4.01	inactive
55	PADI6	1	-0.458	-0.258	3.9	inactive
56	PADI6	2	1.27	11.9	8.46	inactive
57	PADI6	3	3.38	26.7	15	inactive
58	RBP2	1	-1.22	-5.63	2.27	inactive
59	RBP2	2	4.25	32.9	17.2	inactive
60	RBP2	3	1.5	13.5	9.62	inactive
61	MROH9	1	0.754	8.27	7.88	inactive
62	MROH9	2	0.675	7.72	7.68	inactive
63	MROH9	3	-1.33	-6.4	0.627	inactive
64	MTFR1L	1	1.13	10.9	8.65	inactive
65	MTFR1L	2	-0.0249	2.79	5.79	inactive
66	MTFR1L	3	-0.704	-1.99	2.4	inactive
67	LOC728684 (retired record)	1	1.42	12.9	7.49	inactive
68	LOC728684 (retired record)	2	2.09	17.7	10	inactive
69	LOC728684 (retired record)	3	0.546	6.81	6.54	inactive

An excerpt taken from the entries so far, for reference:
no.	gene knocked down	reagent	G2 robust z-score	G2 cells, % of GMNN control	raw share of cells in G2 (%)	activity call
59	RBP2	2	4.25	32.9	17.2	inactive
60	RBP2	3	1.5	13.5	9.62	inactive
61	MROH9	1	0.754	8.27	7.88	inactive
62	MROH9	2	0.675	7.72	7.68	inactive
63	MROH9	3	-1.33	-6.4	0.627	inactive
64	MTFR1L	1	1.13	10.9	8.65	inactive
65	MTFR1L	2	-0.0249	2.79	5.79	inactive
66	MTFR1L	3	-0.704	-1.99	2.4	inactive
67	LOC728684 (retired record)	1	1.42	12.9	7.49	inactive
68	LOC728684 (retired record)	2	2.09	17.7	10	inactive
69	LOC728684 (retired record)	3	0.546	6.81	6.54	inactive
